Assay results: patent publication US20120100173A1
Results are given in words; binding and its absence hold for the method and conditions named. Some results given as binding are weak or reduced against the parent protein; the word gives no strength.

Amino acid sequences for entries named in this document (tags omitted). Residues count along the entry.
UniProt P17879, residues 2-642: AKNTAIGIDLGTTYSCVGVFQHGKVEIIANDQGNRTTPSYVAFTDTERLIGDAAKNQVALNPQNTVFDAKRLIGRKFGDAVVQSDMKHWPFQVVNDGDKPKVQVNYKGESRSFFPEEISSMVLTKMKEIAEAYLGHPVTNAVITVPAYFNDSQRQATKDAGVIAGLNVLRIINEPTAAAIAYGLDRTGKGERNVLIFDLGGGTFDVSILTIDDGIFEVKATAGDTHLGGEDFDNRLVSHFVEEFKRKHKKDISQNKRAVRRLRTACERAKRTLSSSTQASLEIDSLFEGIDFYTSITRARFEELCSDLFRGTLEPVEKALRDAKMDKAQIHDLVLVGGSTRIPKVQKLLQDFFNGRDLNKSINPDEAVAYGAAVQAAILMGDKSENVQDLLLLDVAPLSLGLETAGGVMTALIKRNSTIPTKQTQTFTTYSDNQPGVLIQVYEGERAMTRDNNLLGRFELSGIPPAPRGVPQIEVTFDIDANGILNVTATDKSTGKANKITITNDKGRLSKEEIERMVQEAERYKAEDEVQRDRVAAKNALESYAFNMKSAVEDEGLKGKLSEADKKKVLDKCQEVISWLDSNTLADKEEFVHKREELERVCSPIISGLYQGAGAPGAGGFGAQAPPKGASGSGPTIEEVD
UniProt Q61699, residues 2-858: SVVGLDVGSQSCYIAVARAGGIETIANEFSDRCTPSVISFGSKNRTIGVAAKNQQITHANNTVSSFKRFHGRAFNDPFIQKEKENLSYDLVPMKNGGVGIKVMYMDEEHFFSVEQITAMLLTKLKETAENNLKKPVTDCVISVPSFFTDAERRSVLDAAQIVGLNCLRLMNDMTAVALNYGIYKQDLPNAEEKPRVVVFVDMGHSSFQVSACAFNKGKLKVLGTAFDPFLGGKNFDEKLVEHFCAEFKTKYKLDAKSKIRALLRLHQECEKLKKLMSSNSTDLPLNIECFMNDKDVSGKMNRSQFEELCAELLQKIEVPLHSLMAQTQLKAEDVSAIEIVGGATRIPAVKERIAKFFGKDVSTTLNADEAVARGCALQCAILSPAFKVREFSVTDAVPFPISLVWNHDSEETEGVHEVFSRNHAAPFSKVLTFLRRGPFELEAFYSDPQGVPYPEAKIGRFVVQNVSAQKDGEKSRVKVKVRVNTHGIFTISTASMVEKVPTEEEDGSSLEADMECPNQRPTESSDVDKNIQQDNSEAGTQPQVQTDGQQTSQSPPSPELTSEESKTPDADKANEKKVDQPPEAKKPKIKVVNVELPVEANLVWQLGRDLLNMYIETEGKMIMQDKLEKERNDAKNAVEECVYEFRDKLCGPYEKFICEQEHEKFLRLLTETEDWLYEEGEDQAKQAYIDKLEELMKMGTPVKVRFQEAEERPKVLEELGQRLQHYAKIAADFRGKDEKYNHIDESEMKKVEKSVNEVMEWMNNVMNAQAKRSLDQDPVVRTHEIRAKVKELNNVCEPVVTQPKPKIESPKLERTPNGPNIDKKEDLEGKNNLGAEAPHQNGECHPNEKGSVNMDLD

Experiments:
[1] = target: HSP70 (mouse, endogenous, from organ tissue of tumor bearing mice or Meth A fibrosarcoma) (mouse) (UniProt P17879); assay: affinity chromatography of tissue homogenate, SDS-PAGE of eluate
[2] = target: HSP70 (mouse, endogenous, from organ tissue of tumor bearing mice or Meth A fibrosarcoma) (mouse) (UniProt P17879); assay: affinity chromatography of mouse organ homogenate, Western blot of eluate
[3] = target: HSP40 (mouse, endogenous) (mouse) (UniProt Q9QYJ3); assay: affinity chromatography of mouse tissue homogenate, Western blot of eluate; co-isolated, direct or indirect not resolved
[4] = target: HSP70 (mouse, endogenous, from organ tissue of tumor bearing mice or Meth A fibrosarcoma) (mouse) (UniProt P17879); assay: affinity chromatography of gp96-depleted Meth A homogenate, SDS-PAGE of eluate
[5] = target: HSP70 (mouse, endogenous, from organ tissue of tumor bearing mice or Meth A fibrosarcoma) (mouse) (UniProt P17879); assay: affinity chromatography of Meth A homogenate, LC/MS/MS of gel bands of eluate
[6] = target: HSP70 (mouse, endogenous, from organ tissue of tumor bearing mice or Meth A fibrosarcoma) (mouse) (UniProt P17879); assay: affinity chromatography of mouse organ homogenate, SDS-PAGE and Western blot of eluate
[7] = target: HSP70 (mouse, endogenous, from organ tissue of tumor bearing mice or Meth A fibrosarcoma) (mouse) (UniProt P17879); assay: affinity chromatography of mouse organ homogenate, SDS-PAGE of eluate
[8] = target: HSP90 (mouse, endogenous, isoform not stated) (mouse) (UniProt Q71LX8); assay: as above
[9] = target: HSP70 (mouse, endogenous, from organ tissue of tumor bearing mice or Meth A fibrosarcoma) (mouse) (UniProt P17879); assay: affinity chromatography of mouse organ homogenate, LC/MS/MS of gel bands of eluate
[10] = target: HSP90 (mouse, endogenous, isoform not stated) (mouse) (UniProt Q71LX8); assay: as above
[11] = target: HSP90 (mouse, endogenous, isoform not stated) (mouse) (UniProt Q71LX8); assay: affinity chromatography of mouse organ homogenate, SDS-PAGE of fractions
[12] = target: HSP90 (mouse, endogenous, isoform not stated) (mouse) (UniProt Q71LX8); assay: affinity chromatography of mouse tissue homogenate, NaCl gradient elution, SDS-PAGE
[13] = target: HSP70 (mouse, endogenous, from organ tissue of tumor bearing mice or Meth A fibrosarcoma) (mouse) (UniProt P17879); assay: glutaraldehyde cross-linking of the HOP TPR1 eluate, SDS-PAGE gel shift and Western blot; same cross-linked band, direct partner not resolved
[14] = target: HSP70 (mouse, endogenous, from organ tissue of tumor bearing mice or Meth A fibrosarcoma) (mouse) (UniProt P17879); assay: glutaraldehyde cross-linking of the HOP TPR1 eluate, SDS-PAGE gel shift and Western blot

## HOP TPR1 (amino acid residues 1 to 118 of human HOP) with C-terminal histidine tag (from UniProt P31948 1-118)
[1]
  binding: binds
[2]
  binding: binds
[3]
  binding: binds
[4]
  binding: binds
[5]
  binding: binds
[6]
  binding: binds

## HOP TPR1/2a (amino acid residues 1 to 352 of human HOP) with C-terminal histidine tag (from UniProt P31948 1-352)
[7]
  binding: binds
[8]
  binding: binds
[9]
  binding: binds
[10]
  binding: binds

## HOP TPR2a (amino acid residues 223 to 352 of human HOP) with C-terminal histidine tag (from UniProt P31948 223-352)
[11]
  binding: binds
[12]
  binding: binds

## HSP40 (mouse, endogenous) (from UniProt Q9QYJ3 1-340)
[13]
  binding: binds

## HSP110 (mouse, endogenous) (from UniProt Q61699 2-858)
[14]
  binding: binds
